For this test, the target named is GFRα1. Nature of the test: condition: 25 µL GFRα1 (1 mg/mL) with 40 µg bDNSP-11; pull-down with streptavidin magnetic beads, flow-through and elution analysed (FIG. 13).

No constants are given. Whether binding was seen depends on the method and setting.

B1: biotinylated DNSP-11 (peptide)
peptide: PPEAPAEDRSL
modifications: N-terminal biotin; C-terminal amide
In the case of B1, the binding result is “no binding”.

(Values after patent publication US20130065830A1.)
